Results on 17 targets are retold here after the supplement of paper PMC10849652.

Amino acid sequences for entries named in this document (tags omitted). A change or cut given only in a name is not applied to a line headed by its entry.
UniProt Q9BVG8: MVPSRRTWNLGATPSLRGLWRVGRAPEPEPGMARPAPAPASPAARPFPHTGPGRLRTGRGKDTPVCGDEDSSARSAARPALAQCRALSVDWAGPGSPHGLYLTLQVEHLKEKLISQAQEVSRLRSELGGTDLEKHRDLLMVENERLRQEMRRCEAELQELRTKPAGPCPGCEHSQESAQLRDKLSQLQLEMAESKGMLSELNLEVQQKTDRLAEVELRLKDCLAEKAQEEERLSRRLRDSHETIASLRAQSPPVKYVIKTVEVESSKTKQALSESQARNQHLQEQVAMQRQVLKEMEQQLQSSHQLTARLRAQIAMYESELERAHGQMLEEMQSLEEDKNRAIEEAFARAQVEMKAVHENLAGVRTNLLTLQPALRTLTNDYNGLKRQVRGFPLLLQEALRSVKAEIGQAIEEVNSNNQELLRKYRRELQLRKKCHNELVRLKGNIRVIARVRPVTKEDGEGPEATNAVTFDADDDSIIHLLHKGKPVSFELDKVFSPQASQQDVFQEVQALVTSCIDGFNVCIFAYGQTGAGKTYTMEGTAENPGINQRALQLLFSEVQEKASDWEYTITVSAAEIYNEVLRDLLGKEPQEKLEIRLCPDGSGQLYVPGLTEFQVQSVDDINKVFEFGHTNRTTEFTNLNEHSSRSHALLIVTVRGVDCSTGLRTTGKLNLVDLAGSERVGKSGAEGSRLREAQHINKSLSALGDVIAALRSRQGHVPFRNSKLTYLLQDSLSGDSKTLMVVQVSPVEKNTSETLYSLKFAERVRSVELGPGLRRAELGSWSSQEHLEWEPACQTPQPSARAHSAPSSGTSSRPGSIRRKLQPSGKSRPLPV
UniProt O43731: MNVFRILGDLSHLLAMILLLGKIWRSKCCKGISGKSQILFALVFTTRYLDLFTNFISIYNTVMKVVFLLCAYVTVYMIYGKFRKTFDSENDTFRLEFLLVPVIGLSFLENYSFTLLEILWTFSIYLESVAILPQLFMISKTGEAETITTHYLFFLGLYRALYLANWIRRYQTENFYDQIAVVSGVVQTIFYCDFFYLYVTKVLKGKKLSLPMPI
UniProt Q969F8, whole entry, looked up: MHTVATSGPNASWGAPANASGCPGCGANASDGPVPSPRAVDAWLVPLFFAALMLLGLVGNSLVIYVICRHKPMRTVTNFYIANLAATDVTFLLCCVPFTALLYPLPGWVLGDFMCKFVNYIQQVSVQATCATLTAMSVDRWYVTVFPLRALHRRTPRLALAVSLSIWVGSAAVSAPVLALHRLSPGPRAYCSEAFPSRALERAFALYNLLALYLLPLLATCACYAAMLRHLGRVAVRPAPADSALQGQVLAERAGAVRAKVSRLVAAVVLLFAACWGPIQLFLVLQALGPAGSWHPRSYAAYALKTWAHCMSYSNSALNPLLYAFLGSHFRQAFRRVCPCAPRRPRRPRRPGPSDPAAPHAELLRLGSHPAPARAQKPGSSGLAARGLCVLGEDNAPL
UniProt P05412, whole entry, looked up: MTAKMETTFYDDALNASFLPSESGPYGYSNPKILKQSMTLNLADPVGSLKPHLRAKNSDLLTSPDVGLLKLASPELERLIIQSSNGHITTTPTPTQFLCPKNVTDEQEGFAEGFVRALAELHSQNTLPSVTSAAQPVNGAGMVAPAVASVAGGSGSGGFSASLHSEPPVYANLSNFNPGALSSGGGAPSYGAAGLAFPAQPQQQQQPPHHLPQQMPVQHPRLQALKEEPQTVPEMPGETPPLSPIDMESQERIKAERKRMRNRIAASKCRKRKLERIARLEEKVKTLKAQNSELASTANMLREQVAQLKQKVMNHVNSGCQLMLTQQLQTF
UniProt Q8NG31: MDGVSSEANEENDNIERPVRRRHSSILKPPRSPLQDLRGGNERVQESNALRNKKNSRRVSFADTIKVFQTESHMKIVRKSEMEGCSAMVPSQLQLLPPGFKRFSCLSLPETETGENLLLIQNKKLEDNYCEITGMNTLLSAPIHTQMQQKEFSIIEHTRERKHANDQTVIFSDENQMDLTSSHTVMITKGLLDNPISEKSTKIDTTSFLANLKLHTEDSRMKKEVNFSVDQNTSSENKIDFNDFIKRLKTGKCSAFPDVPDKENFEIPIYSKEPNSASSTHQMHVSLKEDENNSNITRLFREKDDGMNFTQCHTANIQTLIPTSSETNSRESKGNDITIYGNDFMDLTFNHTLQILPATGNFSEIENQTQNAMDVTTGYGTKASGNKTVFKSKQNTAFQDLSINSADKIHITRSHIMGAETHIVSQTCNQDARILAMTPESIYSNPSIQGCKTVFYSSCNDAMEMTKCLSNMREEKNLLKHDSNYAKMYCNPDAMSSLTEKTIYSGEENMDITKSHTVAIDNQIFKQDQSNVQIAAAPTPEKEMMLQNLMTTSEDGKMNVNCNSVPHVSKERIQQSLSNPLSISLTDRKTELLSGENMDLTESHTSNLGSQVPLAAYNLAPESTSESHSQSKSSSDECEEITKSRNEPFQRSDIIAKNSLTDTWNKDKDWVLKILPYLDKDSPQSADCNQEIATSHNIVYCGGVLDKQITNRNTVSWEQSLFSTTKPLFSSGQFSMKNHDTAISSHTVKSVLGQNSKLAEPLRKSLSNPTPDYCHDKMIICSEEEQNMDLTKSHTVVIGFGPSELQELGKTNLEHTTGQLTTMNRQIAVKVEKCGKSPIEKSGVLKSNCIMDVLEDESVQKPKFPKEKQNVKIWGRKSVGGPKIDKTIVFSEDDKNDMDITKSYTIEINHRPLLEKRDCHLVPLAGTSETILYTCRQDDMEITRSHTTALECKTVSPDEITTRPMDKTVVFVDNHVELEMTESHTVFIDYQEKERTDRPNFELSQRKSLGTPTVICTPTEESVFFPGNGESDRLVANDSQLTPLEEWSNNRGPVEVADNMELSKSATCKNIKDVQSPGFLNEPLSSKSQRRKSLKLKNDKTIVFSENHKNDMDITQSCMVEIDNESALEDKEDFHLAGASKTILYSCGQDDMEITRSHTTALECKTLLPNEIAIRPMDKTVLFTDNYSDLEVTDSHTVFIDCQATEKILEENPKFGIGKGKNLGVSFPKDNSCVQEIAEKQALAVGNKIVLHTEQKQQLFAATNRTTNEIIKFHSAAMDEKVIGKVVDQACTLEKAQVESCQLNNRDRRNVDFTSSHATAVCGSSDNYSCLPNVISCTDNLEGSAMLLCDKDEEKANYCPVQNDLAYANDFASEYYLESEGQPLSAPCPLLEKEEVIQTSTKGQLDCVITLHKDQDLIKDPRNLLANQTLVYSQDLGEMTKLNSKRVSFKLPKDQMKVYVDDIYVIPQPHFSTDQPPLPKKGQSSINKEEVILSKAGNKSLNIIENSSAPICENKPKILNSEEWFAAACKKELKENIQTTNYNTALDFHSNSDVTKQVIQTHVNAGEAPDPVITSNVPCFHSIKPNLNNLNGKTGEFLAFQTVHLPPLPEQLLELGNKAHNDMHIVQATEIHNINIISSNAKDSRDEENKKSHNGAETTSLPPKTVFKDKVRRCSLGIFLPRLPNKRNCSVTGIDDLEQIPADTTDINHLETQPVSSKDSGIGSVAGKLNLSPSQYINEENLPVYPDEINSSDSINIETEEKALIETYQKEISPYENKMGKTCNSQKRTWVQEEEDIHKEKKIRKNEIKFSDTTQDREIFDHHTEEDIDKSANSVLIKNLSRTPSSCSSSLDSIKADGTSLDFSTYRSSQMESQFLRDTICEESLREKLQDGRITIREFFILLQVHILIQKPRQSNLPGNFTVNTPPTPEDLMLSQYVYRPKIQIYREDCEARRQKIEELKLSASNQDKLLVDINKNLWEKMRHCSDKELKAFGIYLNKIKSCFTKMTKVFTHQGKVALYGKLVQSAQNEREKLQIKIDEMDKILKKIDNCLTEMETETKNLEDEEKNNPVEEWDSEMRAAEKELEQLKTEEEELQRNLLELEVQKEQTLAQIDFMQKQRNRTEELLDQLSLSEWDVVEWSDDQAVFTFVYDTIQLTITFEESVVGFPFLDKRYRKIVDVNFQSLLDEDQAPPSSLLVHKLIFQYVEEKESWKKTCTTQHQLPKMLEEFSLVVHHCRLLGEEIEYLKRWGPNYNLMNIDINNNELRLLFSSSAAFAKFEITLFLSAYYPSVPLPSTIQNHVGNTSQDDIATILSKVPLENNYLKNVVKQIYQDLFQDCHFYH
UniProt Q9H910: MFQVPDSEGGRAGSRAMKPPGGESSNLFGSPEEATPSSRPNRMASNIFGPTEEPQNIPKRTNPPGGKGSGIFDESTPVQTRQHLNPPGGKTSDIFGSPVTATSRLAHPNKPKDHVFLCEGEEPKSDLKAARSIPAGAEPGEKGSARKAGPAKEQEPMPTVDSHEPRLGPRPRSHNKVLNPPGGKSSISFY
UniProt Q8NB78: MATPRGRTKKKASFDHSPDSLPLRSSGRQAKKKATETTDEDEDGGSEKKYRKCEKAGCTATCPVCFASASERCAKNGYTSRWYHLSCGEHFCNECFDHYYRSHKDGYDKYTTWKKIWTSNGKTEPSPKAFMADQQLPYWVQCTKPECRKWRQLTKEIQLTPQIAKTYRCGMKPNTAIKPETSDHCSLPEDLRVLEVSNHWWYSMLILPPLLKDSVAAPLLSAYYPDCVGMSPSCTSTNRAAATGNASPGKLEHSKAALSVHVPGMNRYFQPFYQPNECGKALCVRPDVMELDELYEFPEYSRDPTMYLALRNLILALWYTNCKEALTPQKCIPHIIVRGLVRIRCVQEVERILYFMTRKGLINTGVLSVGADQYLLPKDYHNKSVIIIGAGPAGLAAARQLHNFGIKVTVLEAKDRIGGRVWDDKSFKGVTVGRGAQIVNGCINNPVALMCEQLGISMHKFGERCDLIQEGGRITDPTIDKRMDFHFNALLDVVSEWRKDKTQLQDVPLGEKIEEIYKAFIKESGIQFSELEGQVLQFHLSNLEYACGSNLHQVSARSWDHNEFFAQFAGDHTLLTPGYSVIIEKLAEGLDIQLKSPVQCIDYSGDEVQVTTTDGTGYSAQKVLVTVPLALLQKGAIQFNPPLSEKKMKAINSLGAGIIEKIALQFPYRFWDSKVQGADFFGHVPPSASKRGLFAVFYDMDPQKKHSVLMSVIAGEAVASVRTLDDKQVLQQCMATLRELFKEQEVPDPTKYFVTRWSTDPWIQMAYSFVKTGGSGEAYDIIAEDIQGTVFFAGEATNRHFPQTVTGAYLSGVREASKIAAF
UniProt P24390: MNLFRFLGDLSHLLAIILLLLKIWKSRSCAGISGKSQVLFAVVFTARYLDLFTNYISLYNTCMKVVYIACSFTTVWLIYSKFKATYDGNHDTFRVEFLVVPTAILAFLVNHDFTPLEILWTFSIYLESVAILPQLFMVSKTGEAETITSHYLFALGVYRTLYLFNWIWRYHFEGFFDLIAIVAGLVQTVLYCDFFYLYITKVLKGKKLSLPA
UniProt O95239: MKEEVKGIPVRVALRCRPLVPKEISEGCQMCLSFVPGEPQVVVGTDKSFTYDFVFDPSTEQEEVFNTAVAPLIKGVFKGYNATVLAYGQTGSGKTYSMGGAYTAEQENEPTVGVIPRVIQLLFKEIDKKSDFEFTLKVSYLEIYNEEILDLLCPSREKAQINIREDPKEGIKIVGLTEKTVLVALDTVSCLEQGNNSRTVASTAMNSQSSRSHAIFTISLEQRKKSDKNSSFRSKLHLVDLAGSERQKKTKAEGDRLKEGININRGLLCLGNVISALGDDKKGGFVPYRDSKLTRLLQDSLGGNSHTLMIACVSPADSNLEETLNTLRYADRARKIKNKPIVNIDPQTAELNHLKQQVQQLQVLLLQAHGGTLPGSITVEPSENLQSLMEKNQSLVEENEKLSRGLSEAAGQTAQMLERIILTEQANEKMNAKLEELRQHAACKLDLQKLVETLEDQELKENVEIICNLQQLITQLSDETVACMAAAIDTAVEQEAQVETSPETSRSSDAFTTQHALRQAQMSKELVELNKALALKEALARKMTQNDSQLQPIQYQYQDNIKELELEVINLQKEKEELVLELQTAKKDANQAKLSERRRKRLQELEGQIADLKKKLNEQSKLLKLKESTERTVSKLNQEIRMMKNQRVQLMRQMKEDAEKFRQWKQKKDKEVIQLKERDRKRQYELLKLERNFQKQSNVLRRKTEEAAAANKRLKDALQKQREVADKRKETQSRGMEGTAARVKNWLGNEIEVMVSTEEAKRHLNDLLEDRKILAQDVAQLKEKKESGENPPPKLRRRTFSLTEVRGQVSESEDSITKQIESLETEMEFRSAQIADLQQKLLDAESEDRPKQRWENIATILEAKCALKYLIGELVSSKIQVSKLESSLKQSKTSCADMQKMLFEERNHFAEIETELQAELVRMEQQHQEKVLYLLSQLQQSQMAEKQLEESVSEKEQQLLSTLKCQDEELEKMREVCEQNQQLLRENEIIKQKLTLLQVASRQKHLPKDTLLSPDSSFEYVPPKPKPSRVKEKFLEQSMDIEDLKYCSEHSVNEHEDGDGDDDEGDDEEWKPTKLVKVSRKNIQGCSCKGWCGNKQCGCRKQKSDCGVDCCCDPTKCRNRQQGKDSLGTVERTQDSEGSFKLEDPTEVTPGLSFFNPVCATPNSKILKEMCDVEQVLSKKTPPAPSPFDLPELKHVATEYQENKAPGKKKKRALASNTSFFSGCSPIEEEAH

This is one part of the list.

Compound in this assay: Cc1sc2c(c1C)C(c1ccc(Cl)cc1)=N[C@@H](CC(=O)OC(C)(C)C)c1nnc(C)n1-2
Nature of the assay: log2 fold change, soluble protein after heating vs DMSO (PISA); higher = thermal stabilisation; K562 cells, 10 uM, 30 min; active = over 0.2 and 3.5 SD of the protein, either way, in both replicates (recomputed). The essentials: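 K562 cells at 2×10^6 cells/mL were exposed to 10 μM compound for 30 min, then aliquots were heated for 3 min across 48°C-58°C, pooled, and extracted in PBS containing 0.5% NP-40 at 4°C. The supernatant after 21,000xg for 90 min was taken as soluble protein and measured by TMTpro 16plex LC-MS/MS with channel sums equalised. Thermal stability is reported relative to control samples, with values from duplicates. Fold changes are given on a log2 scale.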
In the case of KIFC3 isoform 6 (UniProt Q9BVG8), the log2 fold change was inactive: -0.027.

Turning to KIDINS220 isoform 2 (UniProt Q9ULH0), the log2 fold change is inactive: 0.145.

Regarding KLHL20 (UniProt Q9Y2M5), the log2 fold change was inactive: -0.027.

Take KLC3 isoform 3 (UniProt Q6P597): the log2 fold change is inactive: 0.09.

Regarding KDELR3 (UniProt O43731), the log2 fold change is inactive: -0.086.

On to KISS1R (UniProt Q969F8), for which the log2 fold change is inactive: -0.065.

JUN (UniProt P05412): the log2 fold change is inactive: -0.035.

In the case of KNL1 (UniProt Q8NG31), the log2 fold change was inactive: -0.041.

For the target KAT6B (UniProt Q8WYB5), the log2 fold change was inactive: 0.

For KLHDC10 (UniProt Q6PID8), the log2 fold change is inactive: -0.062.

Regarding JPT2 isoform 2 (UniProt Q9H910), the log2 fold change was inactive: 0.053.

Turning to KCTD1 (UniProt Q719H9), the log2 fold change is inactive: 0.029.

As for KDM1B (UniProt Q8NB78), the log2 fold change is inactive: -0.147.

Turning to KLF16 (UniProt Q9BXK1), the log2 fold change is inactive: 0.023.

In the case of KDELR1 (UniProt P24390), the log2 fold change is inactive: 0.207.

For the target KIF4A (UniProt O95239), the log2 fold change was inactive: -0.009.

Turning to KATNBL1 (UniProt Q9H079), the log2 fold change was inactive: 0.081.
